The target of the assay is T1, FLAG-tagged Ero1 (yeast) (UniProt Q03103).
T1 sequence: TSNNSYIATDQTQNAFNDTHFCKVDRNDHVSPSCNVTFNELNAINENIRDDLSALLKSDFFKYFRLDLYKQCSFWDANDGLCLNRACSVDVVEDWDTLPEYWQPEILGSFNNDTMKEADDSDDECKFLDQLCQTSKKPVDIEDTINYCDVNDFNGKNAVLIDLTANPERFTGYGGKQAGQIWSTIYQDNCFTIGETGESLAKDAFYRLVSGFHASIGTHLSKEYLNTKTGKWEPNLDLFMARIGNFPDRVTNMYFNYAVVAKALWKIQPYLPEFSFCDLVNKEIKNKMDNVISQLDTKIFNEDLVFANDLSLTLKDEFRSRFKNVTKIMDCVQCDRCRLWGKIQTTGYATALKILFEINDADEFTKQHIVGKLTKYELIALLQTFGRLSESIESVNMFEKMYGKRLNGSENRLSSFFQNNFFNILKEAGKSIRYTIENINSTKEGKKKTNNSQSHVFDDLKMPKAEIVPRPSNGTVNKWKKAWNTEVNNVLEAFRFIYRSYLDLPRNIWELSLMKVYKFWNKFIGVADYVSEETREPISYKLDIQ
The assay can be described thus: co-IP; lysates of yeast BY4742 over-expressing Ero1-FLAG (or Ero1-3xMyc as control) and Osm1-3xHA; anti-FLAG affinity beads, TBS, 1% Triton, on ice; immunoblot. (In general: Immunoblotting shows a protein as a band on a membrane.)

Results are given in words; binding and its absence hold for the method and conditions named. In cells and extracts the contact can be indirect. Some binding calls cover weakened binding; strength is not graded here. Tags and fused reporters may be left off the sequences shown.

B1: 3x HA-tagged Osm1 (enzyme, UniProt P21375 33-501)
chain: MKQPVVVIGSGLAGLTTSNRLISKYRIPVVLLDKAASIGGNSIKASSGINGAHTDTQQNLKVMDTPELFLKDTLHSAKGRGVPSLMDKLTKESKSAIRWLQTEFDLKLDLLAQLGGHSVPRTHRSSGKLPPGFEIVQALSKKLKDISSKDSNLVQIMLNSEVVDIELDNQGHVTGVVYMDENGNRKIMKSHHVVFCSGGFGYSKEMLKEYSPNLIHLPTTNGKQTTGDGQKILSKLGAELIDMDQVQVHPTGFIDPNDRENNWKFLAAEALRGLGGILLHPTTGRRFTNELSTRDTVTMEIQSKCPKNDNRALLVMSDKVYENYTNNINFYMSKNLIKKVSINDLIRQYDLQTTASELVTELKSYSDVNTKDTFDRPLIINAFDKDISTESTVYVGEVTPVVHFTMGGVKINEKSQVIKKNSESVLSNGIFAAGEVSGGVHGANRLGGSSLLECVVFGKTAADNIAKLY
Take B1: the binding entry is “binds weakly”.

These data come from article PMC6242907, “Molecular basis of maintaining an oxidizing environment under anaerobiosis by soluble fumarate reductase” (Nature Communications, 2018).
